No constants are given. Whether binding was seen depends on the method and setting. Binding seen in cells or lysates may run through a third protein. Some results given as binding are weak or reduced against the parent protein; the word gives no strength. Each block holds one molecule with its values, some of them ahead of it.
Columns and labels:
[1] = target: T1, BBC3 protein (rat (endogenous in tissue of MCAO rats)) (UniProt Q80ZG6); assay: co-IP; tissues from animals homogenised; rabbit anti-BBC3 or anti-Bcl2l1 coupled to SiezeX beads (Pierce); eluted proteins separated by 12-15% SDS-PAGE and immunoblotted
T1 sequence: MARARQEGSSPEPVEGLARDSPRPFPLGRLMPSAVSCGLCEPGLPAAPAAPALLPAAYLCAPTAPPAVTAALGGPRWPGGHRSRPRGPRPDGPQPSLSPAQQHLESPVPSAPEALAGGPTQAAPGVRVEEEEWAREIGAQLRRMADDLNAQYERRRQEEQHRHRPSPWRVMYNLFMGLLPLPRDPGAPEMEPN

Protein sequences, listed by entry. Tags and fused reporters are not part of them. Lines headed by an entry give the natural chain unless they say otherwise; changes in a name come on top.
UniProt P53563: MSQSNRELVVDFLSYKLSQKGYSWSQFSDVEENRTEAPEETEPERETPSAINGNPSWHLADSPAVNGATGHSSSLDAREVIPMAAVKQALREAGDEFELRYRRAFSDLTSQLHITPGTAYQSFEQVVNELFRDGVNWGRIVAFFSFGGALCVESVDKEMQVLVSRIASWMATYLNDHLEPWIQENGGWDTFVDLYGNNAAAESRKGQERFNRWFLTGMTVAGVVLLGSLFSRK

[2] = target: Bcl-XL protein (rat (endogenous in tissue of MCAO rats)) (UniProt P53563); assay: as above

binding [1]: binds
Molecule: Bcl-XL protein (from UniProt P53563-1 1-233)

binding [2]: binds
B1: BBC3 protein (protein, UniProt Q80ZG6 1-193)
chain: T1 sequence
